Source: patent US20150238507A1, “BENZODIAZEPINES FOR TREATING SMALL CELL LUNG CANCER” (GlaxoSmithKline LLC, priority 2012, published 2015)

How the values were obtained:
[1] = system: target (SRC) gene expression in NCI-H526 xenograft; assay: animal or person; conditions: Mus musculus, NCI-H526, read-out: ED50 (dose response of target (SRC) gene expression)
[2] = system: target (SRC) gene expression in NCI-H526 xenograft; conditions: single-dose PK/PD experiment

With CCNC(=O)C[C@@H]1N=C(c2ccc(Cl)cc2)c2cc(OC)ccc2-n2c(C)nnc21 [2-[(4S)-6-(4-chlorophenyl)-1-methyl-8-(methyloxy)-4H-[1,2,4]triazolo[4,3-a][1,4]benzodiazepin-4-yl]-N-ethylacetamide] the ED50 [1] was 7.1 mg/kg and the “changes in target (SRC) gene expression” value [2] was “Dose-dependent changes”.
